# Where “and” joins values, the source holds several entries; their conditions need not be identical. Identical values can stand only once. This list was built around the results that the source calls inconclusive (neither active nor inactive); the mix of calls is not that of the screen. A potency beside an inconclusive call is a rough fit, not a confirmed value. Calls of active or inactive are those of the source. The calls were made as follows: active = hit-call score of the fitted dose curve at least 0.9, where 1 is the maximum; inconclusive = response in the unintended direction; inactive = score below 0.9.
# Sequences of proteins named here, by UniProt entry; tags and fusion partners are left off. A change or cut given only in a name is not applied to a line headed by its entry.
# UniProt P10276, whole entry, looked up: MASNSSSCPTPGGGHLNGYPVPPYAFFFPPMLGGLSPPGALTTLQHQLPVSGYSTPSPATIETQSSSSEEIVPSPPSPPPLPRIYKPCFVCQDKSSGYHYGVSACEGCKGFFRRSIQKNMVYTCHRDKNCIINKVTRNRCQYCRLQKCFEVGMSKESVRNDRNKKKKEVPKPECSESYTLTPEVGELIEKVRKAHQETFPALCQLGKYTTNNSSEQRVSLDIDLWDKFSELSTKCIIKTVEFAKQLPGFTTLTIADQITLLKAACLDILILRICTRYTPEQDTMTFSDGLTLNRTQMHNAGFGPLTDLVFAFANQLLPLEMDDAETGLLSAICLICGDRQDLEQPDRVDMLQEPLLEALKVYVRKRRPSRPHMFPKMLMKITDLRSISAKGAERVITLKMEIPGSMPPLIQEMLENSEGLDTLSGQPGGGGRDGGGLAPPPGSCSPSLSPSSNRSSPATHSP
# UniProt P13631, whole entry, looked up: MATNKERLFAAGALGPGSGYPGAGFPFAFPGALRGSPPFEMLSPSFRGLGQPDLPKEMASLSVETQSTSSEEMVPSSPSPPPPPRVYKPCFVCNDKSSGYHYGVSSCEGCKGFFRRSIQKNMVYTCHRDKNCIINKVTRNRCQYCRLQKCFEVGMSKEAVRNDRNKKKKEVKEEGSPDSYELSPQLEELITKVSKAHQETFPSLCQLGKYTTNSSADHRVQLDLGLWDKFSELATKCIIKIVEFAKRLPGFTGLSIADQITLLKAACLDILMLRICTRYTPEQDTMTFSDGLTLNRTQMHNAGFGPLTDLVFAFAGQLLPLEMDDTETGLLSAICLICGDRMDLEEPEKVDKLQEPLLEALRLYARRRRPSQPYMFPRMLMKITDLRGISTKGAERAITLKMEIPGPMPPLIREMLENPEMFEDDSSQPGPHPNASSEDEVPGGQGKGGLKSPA
# UniProt P51449: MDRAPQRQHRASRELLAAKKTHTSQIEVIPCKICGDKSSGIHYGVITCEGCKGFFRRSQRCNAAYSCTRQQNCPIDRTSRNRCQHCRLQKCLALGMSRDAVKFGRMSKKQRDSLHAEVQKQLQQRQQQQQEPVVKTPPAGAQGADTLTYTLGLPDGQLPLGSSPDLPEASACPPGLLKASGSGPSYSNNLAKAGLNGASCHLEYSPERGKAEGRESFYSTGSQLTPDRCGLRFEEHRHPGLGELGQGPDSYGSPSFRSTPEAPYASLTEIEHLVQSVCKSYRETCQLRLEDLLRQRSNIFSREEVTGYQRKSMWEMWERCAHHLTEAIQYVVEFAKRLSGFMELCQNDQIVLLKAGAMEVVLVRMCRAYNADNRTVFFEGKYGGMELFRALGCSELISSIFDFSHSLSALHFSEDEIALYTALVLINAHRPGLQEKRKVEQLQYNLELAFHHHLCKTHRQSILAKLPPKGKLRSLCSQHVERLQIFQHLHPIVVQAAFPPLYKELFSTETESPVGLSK
# UniProt P28702: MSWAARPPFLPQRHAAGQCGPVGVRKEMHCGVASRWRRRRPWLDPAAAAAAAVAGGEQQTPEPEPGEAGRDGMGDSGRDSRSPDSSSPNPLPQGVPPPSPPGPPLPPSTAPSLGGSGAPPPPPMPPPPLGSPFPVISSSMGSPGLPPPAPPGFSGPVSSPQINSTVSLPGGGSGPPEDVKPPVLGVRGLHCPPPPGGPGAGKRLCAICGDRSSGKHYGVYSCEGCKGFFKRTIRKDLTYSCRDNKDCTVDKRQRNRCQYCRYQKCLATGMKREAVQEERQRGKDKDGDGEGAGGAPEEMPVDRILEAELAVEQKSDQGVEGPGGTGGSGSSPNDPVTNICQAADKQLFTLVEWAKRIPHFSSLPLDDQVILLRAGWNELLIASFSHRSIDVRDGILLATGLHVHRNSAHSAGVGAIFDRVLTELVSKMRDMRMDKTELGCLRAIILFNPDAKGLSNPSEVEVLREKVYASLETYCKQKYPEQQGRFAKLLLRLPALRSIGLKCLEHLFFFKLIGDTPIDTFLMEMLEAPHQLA
# UniProt P10827: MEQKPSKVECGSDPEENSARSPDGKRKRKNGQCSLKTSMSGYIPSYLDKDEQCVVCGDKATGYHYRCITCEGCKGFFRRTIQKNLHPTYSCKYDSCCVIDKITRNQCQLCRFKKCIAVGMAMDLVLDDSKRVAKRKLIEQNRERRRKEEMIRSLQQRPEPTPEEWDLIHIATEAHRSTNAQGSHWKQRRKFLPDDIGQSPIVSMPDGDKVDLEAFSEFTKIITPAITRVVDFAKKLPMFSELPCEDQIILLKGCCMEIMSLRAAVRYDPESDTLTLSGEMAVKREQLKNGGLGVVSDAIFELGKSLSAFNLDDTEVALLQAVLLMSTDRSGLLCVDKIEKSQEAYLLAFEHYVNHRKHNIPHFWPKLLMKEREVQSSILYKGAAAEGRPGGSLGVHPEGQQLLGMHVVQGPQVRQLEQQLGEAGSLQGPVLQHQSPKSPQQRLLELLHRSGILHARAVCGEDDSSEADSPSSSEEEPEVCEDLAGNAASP
# UniProt Q92753: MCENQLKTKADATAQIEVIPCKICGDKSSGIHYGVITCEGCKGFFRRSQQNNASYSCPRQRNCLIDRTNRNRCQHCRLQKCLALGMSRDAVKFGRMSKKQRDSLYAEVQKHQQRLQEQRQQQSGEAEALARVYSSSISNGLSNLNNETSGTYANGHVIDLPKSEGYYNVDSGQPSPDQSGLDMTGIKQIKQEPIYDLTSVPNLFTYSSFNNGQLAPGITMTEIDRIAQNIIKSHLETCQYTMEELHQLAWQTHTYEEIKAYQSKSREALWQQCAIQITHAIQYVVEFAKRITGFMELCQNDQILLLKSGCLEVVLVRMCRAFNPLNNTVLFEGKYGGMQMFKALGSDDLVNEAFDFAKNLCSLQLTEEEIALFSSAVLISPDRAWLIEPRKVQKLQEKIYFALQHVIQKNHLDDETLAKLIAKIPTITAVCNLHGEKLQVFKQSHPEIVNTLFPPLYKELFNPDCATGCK
# UniProt P19793: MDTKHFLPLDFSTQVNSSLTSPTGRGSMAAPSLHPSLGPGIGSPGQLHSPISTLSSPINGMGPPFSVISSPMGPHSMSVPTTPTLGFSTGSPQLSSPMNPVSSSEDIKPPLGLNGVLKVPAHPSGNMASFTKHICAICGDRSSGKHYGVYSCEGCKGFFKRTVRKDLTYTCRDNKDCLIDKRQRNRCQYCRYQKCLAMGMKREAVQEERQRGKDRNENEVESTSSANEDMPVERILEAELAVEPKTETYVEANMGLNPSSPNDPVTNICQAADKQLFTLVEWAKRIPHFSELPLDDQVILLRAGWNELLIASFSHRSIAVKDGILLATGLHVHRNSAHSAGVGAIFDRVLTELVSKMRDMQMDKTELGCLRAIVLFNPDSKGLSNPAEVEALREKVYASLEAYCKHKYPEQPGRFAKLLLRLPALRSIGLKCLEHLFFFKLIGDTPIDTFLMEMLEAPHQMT
# UniProt P11473: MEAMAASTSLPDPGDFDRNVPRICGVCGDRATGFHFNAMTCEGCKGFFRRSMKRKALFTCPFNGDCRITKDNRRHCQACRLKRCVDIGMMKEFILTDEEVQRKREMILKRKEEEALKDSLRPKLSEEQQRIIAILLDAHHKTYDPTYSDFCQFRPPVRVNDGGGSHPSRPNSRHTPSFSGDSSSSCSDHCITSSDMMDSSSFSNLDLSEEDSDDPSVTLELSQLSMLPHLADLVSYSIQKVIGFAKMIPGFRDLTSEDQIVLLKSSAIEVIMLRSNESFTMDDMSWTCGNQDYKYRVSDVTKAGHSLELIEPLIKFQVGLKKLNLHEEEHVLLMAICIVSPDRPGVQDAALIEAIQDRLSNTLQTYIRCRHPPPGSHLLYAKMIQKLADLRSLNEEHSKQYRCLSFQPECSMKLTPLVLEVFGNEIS
# Legend:
# [1] = target: Retinoic acid receptor alpha (Homo sapiens) (UniProt P10276); assay: ATG_RARa_TRANS: Attagene TRANS-FACTORIAL HepG2 Assay for human Retinoic Acid Receptor alpha (RARa) (AID 2283005);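 as to AC50: potency for increased reporter signal meaning RARa activation over DMSO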
# Outline: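 HepG2 cells transiently transfected with multiple reporter units expressing chimeric RARα-GAL4 fusion, with GAL4-UAS-driven reporters. After 24 h compound exposure, reporter mRNA induction quantified by RT-PCR and capillary electrophoresis with fluorescent labeling; gain-of-signal fitted relative to DMSO control.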
# [2] = target: human Retinoic Acid Receptor gamma (RARg), RARG (gene 5916) (UniProt P13631); assay: ATG_RARg_TRANS: Attagene TRANS-FACTORIAL HepG2 Assay for human Retinoic Acid Receptor gamma (RARg) (AID 2283009);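 as to AC50: AC50 is for reporter induction above DMSO meaning RARg activation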
# Outline: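 Readout: reporter transcript levels via RT-PCR, 6-FAM primer-extension labelling, HpaI digestion and capillary electrophoresis. Cells: HepG2 carrying transfected RARg-GAL4 chimera plus UAS reporter set. Dosing 24 h; DMSO negative control.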
# [3] = target: human RAR-related Orphan Receptor gamma (RORg), RORC (gene 6097) (UniProt P51449); assay: ATG_RORg_TRANS: Attagene TRANS-FACTORIAL HepG2 Assay for human RAR-related Orphan Receptor gamma (RORg) (AID 2283011);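 as to AC50: potency for induction of reporter transcripts above DMSO so activators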
# Outline: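 Transient MRTU transfection of HepG2 (TRANS format, exogenous NR-Gal4 chimera). 24 h dosing. Total RNA → oligo(dT) RT → PCR → 6-FAM labelling → HpaI cut → CE. Gain vs DMSO.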
# [4] = target: human Retinoid X Receptor beta (RXRb), RXRB (gene 6257) (UniProt P28702); assay: ATG_RXRb_TRANS: Attagene TRANS-FACTORIAL HepG2 Assay for human Retinoid X Receptor beta (RXRb) (AID 2283013)
# Outline: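 Read-out: reporter mRNA induction via RT-PCR plus capillary electrophoresis fluorescence, analysed as signal increase relative to DMSO. Cells were human HepG2, transiently transfected with GAL4-UAS reporter constructs and chimeric receptor-Gal4 fusions, dosed for 24 h.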
# [5] = target: human Thyroid Receptor alpha (THRa1), THRA (gene 7067) (UniProt P10827); assay: ATG_THRa1_TRANS: Attagene TRANS-FACTORIAL HepG2 Assay for human Thyroid Receptor alpha (THRa1) (AID 2283014)
# Outline: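 Transient HepG2 transfection, NR-Gal4 chimera driving GAL4-UAS reporters; 24 h compound exposure; total RNA, oligo(dT) RT, PCR, fluorescent primer extension, capillary electrophoresis. Upward direction vs DMSO control.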
# [6] = target: human RAR-related Orphan Receptor beta (RORb), RORB (gene 6096) (UniProt Q92753); assay: ATG_RORb_TRANS: Attagene TRANS-FACTORIAL HepG2 Assay for human RAR-related Orphan Receptor beta (RORb) (AID 2283010);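 as to AC50: potency for increased reporter mRNA meaning activation of RORb-Gal4 chimera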
# Outline: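 HepG2, transient MRTU transfection (GAL4-UAS reporters, exogenous NR-Gal4 chimeras); 24 h compound exposure; total RNA → RT-PCR → 6-FAM primer extension → HpaI digest → CE fluorescence. Positive direction vs DMSO baseline.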
# [7] = target: Retinoic acid receptor RXR-alpha (Homo sapiens) (UniProt P19793); assay: ATG_RXRa_TRANS: Attagene TRANS-FACTORIAL HepG2 Assay for human Retinoid X Receptor alpha (RXRa) (AID 2283012)
# Outline: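 Read-out: fluorescent reporter-transcript fragments quantified by capillary electrophoresis after RT-PCR. Transiently transfected HepG2 cells carrying GAL4-UAS reporters and NR-GAL4 chimeras were exposed to chemical for 24 h; activity scored as increase over DMSO.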
# [8] = target: human Vitamin D Receptor (VDR), VDR (gene 7421) (UniProt P11473); assay: ATG_VDR_TRANS: Attagene TRANS-FACTORIAL HepG2 Assay for human Vitamin D Receptor (VDR) (AID 2283022)
# Outline: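 RT-PCR/capillary electrophoresis read-out of reporter mRNA induction in transiently transfected HepG2; 24 h dosing; chimeric NR-Gal4 (TRANS format); gain-of-signal fit against DMSO baseline.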
smiles,measurement,setting,value
OCC(F)(F)C(F)(F)C(F)(F)C(F)(F)C(F)(F)C(F)(F)C(F)(F)C(F)(F)C(F)(F)C(F)(F)C(F)(F)F,AC50,[1],inconclusive: 248 µM
same,AC50,[2],inconclusive: 150 µM
same,outcome,[3],inactive
same,outcome,[4],inactive
same,AC50,[5],inconclusive: 150 µM
C[C@]12CC[C@H]3C(=CCc4cc(O)ccc43)[C@@H]1CCC2=O,outcome,[1],inactive
same,outcome,[6],inactive
same,AC50,[3],inconclusive: 100 µM
same,outcome,[7],inactive
same,AC50,[4],inconclusive: 100 µM
same,outcome,[5],inactive
O=C1c2c(O)ccc(Nc3ccc(CCO)cc3)c2C(=O)c2c([N+](=O)[O-])ccc(O)c21,outcome,[1],inactive
same,AC50,[6],inconclusive: 100 µM
same,outcome,[3],inactive
same,outcome,[7],inactive
same,AC50,[4],inconclusive: 100 µM
same,AC50,[5],active: 30 µM
O=C(O)/C=C/c1ccccc1,AC50,[1],inconclusive: 100 µM
same,AC50,[2],inconclusive: 100 µM
same,AC50,[3],inconclusive: 100 µM
same,AC50,[4],active: 121 µM
same,outcome,[5],inactive
CCOC(=O)[C@H](C)O,outcome,[1],inactive
same,AC50,[6],inconclusive: 100 µM
same,outcome,[3],inactive
CCOC(OCC)C(=O)c1ccccc1,outcome,[1],inactive
same,AC50,[2],inconclusive: 100 µM
same,AC50,[3],inconclusive: 0.864 µM
same,outcome,[4],inactive
same,AC50,[5],inconclusive: 0.873 µM
CC1=NN(c2cc(S(=O)(=O)O)ccc2Cl)C(=O)C1N=Nc1ccccc1 (stereo unspecified),AC50,[1],inconclusive: 5.4 µM
same,outcome,[2],inactive
same,outcome,[7],inactive
same,AC50,[4],inconclusive: 100 µM
same,AC50,[8],inconclusive: 5.37 µM
CC(C)CCOCc1ccccc1,AC50,[1],inconclusive: 100 µM
same,AC50,[6],inconclusive: 100 µM
same,outcome,[3],inactive
same,AC50,[7],inconclusive: 4.97 µM
C[Si](C)(CCCN)O[Si](C)(C)CCCN,AC50,[1],inconclusive: 100 µM
same,outcome,[2],inactive
same,outcome,[7],inactive
same,AC50,[4],inconclusive: 100 µM
COC(=O)c1sccc1S(N)(=O)=O,outcome,[1],inactive
same,outcome,[6],inactive
same,outcome,[3],inactive
same,AC50,[7],inconclusive: 23.9 µM
same,AC50,[4],inconclusive: 100 µM
CCOC(=O)CC,AC50,[1],inconclusive: 100 µM
same,AC50,[2],inconclusive: 100 µM
same,AC50,[3],inconclusive: 100 µM
same,outcome,[7],inactive
same,AC50,[4],inconclusive: 182 µM
same,outcome,[5],inactive
CCCCCCCCCCCCOCCOS(=O)(=O)O,AC50,[1],inconclusive: 56.2 µM
same,AC50,[2],inconclusive: 57.8 µM
same,AC50,[5],inconclusive: 11.5 µM
O=C(O)CCC(F)(F)C(F)(F)C(F)(F)C(F)(F)C(F)(F)F,AC50,[1],inconclusive: 150 µM
same,AC50,[6],inconclusive: 150 µM
same,outcome,[6],inactive
same,AC50,[3],inconclusive: 150 µM
same,outcome,[4],inactive
same,AC50,[5],inconclusive: 24.5 µM and inconclusive: 36.8 µM
NCC(F)(F)C(F)(F)C(F)(F)C(F)(F)F,AC50,[1],inconclusive: 150 µM
same,AC50,[2],inconclusive: 150 µM
same,AC50,[3],inconclusive: 150 µM
same,AC50,[7],inconclusive: 150 µM
same,AC50,[4],inconclusive: 150 µM
same,AC50,[5],inconclusive: 150 µM
CC1CCC(C(C)(C)S)C(=O)C1 (stereo unspecified),AC50,[1],inconclusive: 100 µM
same,AC50,[2],inconclusive: 5.57 µM
same,AC50,[3],inconclusive: 100 µM
same,outcome,[5],inactive
CC(CC=O)CCCC(C)(C)O (stereo unspecified),AC50,[1],inconclusive: 179 µM
same,outcome,[6],inactive
same,AC50,[3],inconclusive: 99.5 µM
same,outcome,[5],inactive
NC(=O)N1c2ccccc2C=Cc2ccccc21,outcome,[1],inactive
same,AC50,[6],inconclusive: 100 µM
same,AC50,[3],inconclusive: 0.0134 µM
same,AC50,[4],inconclusive: 100 µM
same,outcome,[5],inactive
Nc1ncn([C@@H]2O[C@H](CO)[C@@H](O)[C@H]2O)c(=O)n1,outcome,[1],inactive
same,AC50,[6],inconclusive: 0.676 µM
same,AC50,[3],inconclusive: 0.41 µM
same,outcome,[7],inactive
same,outcome,[5],inactive
Nc1ccc(Nc2ccccc2)cc1,AC50,[1],inconclusive: 178 µM
same,AC50,[6],inconclusive: 100 µM
same,AC50,[3],inconclusive: 100 µM
same,AC50,[4],inconclusive: 0.599 µM
O=C(/C=C/c1ccc(O)cc1)CC(=O)/C=C/c1ccc(O)cc1,AC50,[1],inconclusive: 100 µM
same,AC50,[6],inconclusive: 100 µM
same,AC50,[3],inconclusive: 100 µM
same,outcome,[7],inactive
same,outcome,[4],inactive
same,AC50,[8],inconclusive: 167 µM
CCCCCCCCOC(=O)c1cc(O)c(O)c(O)c1,AC50,[1],inconclusive: 33.4 µM
same,AC50,[3],inconclusive: 33.4 µM
same,outcome,[4],inactive
same,outcome,[5],inactive
same,AC50,[8],active: 55 µM
CCN(Cc1cccnc1)C(=O)c1cccc(Cl)c1[C@]1(C)C(=O)N(Cc2ccc(OC)cc2OC)c2ccc(Cl)cc21,AC50,[1],inconclusive: 38 µM
same,AC50,[6],inconclusive: 2.61 µM
same,AC50,[3],inconclusive: 2.86 µM
same,AC50,[4],inconclusive: 9.24 µM
same,AC50,[5],inconclusive: 2.9 µM
C1=Cc2ccccc2C1,AC50,[1],inconclusive: 100 µM
same,outcome,[3],inactive
same,AC50,[7],inconclusive: 24.2 µM
C#C[C@]1(O)CC[C@H]2[C@@H]3CCc4cc(OC)ccc4[C@H]3CC[C@@]21C,AC50,[1],inconclusive: 100 µM
same,AC50,[6],inconclusive: 100 µM
same,AC50,[3],inconclusive: 100 µM
same,outcome,[5],inactive
CCN(CCC#N)c1ccccc1,outcome,[1],inactive
same,outcome,[6],inactive
same,AC50,[3],inconclusive: 100 µM
same,outcome,[4],inactive
same,AC50,[5],inconclusive: 100 µM
C=CC(C)(CCC=C(C)C)OC(=O)C(C)C (stereo unspecified),AC50,[1],inconclusive: 180 µM
same,AC50,[3],inconclusive: 5.11 µM
CC1(C)[C@@H]2CC[C@@]1(C)C(=O)C2,outcome,[1],inactive
same,AC50,[6],inconclusive: 100 µM
same,AC50,[3],inconclusive: 100 µM
same,AC50,[4],inconclusive: 100 µM
same,outcome,[8],inactive
CN(C)c1ccc(C(=N)c2ccc(N(C)C)cc2)cc1,AC50,[1],inconclusive: 17.5 µM
same,AC50,[6],inconclusive: 1.32 µM
same,outcome,[7],inactive
same,outcome,[5],inactive
same,AC50,[8],active: 156 µM
C=CC/C=C/C/C=C/C/C=C/C,AC50,[1],inconclusive: 100 µM
same,AC50,[6],inconclusive: 181 µM
same,outcome,[3],inactive
same,AC50,[4],active: 100 µM
same,outcome,[5],inactive
same,AC50,[8],inconclusive: 100 µM
